Patent US4868320A, “1,7,9,15-Tetraoxa-4,12-diaza-8-silaspiro-(7.7)-pentadecanes, a process for their preparaton and their use” (Bayer Akteingesellschaft, priority 1987, dated 1989)

What was measured:
[1] = Determination of reactivity: hardening in K 36 (DIN 16 945); conditions: 2% benzoyl peroxide paste (50%), 2% accelerator in resin
[2] = Determination of reactivity: hardening in Roskydal K 14 M (DIN 16 945); conditions: A 3% (0.10% N), 1 2% (0.13% N) in resin

Structure (SMILES) | Tmax [1] [°C] | Tmax [2] [°C]
Cc1ccc(N2CCO[Si]3(OCC2)OCCN(c2ccc(C)c(Cl)c2)CCO3)cc1Cl [Example 2] | 78 | 
Cc1ccc(N2CC(C)O[Si]3(OC(C)C2)OC(C)CN(c2ccc(C)cc2)CC(C)O3)cc1 (stereo not shown) [Example 3] | 95 | 
Cc1ccc(N2CCO[Si]3(OCC2)OCCN(c2ccc(C)cc2)CCO3)cc1 [Example 1] | 102 | 127
